Source: patent publication US12461078B2, “Compounds for use in system suitability testing of inert LC systems and columns” (priority 2020, dated 2025)

Experiments:
[1] = Flow injection test of AMPcP (no column), LC with ethylene bridged hybrid surfaces versus MP35N flowpath (FIG. 2)
[2] = Flow injection of AMPcP and caffeine on fully inert HST LC system versus partially inert system with one MP35N part (FIG. 6)
[3] = metallic MP35N flowpath versus ethylene bridged hybrid surfaces, 6 replicate injections, 0.5 mL/min 80:20 acetonitrile:water
[4] = fully inert system, 0.5 mL/min 80:20 acetonitrile:water
[5] = partially inert system (one MP35N part)
[6] = partially inert system (one MP35N part, ~40% of flow path surface area)
[7] = partially versus fully inert system

| Compound | peak area RSD ([1]; LC equipped with ethylene bridged hybrid (HST) surface technology) [%] | peak area RSD ([1]; metal-based biocompatible (MP35N) system) [%] | lower average peak area [1, 3] [%] | lower average peak height [1, 3] [%] | average peak height ([2]; fully inert system) [μAU] | peak area ratio between AMPcP and caffeine ([2]; fully inert system) | average peak area [2, 4] [μAU*sec] | peak area ratio between AMPcP and caffeine ([2]; partially inert system) | average peak height [2, 5] [μAU] | average peak area [2, 6] [μAU*sec] | decrease in average peak area [2, 7] [%] | decrease in average peak height [2, 7] [%] |
| --- | --- | --- | --- | --- | --- | --- | --- | --- | --- | --- | --- | --- |
| Nc1ncnc2c1ncn2[C@@H]1O[C@H](COP(=O)(O)CP(=O)(O)O)[C@@H](O)[C@H]1O [AMPcP, Adenosine 5′-(α, β-methylene)diphosphate] | 0.4 | 6.4 | 48 | 47 | 34400 | 1.1 | 18000 | 0.79 | 18100 | 12900 | 28 | 47 |
| Cn1c(=O)c2c(ncn2C)n(C)c1=O [caffeine] | – | – | – | – | 32000 | – | 16100 | – | 32800 | 16300 | – | – |
